## Results of single-concentration screens

Source: ChEMBL document CHEMBL3988442, “University of Dundee, Small-Polar-MMV Screening Library” (2021).

Results are given as percent effect. The controls that fix the scale are not given in the record; negative values are as filed. The compounds are a random part of those screened. Two or more numbers in one place are separate tests of the same structure; such repeats can differ widely.

A: 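Whole-cell growth test on Mycobacterium tuberculosis, read after 4 days in a medium based on cholesterol and the lipid DPPC; the read-out is not stated. Concentration: 50 µM. Higher reads as more growth inhibition (inferred: compounds with an IC50 in retests scored well above the rest). Size under these conditions: about 69,000 compounds, about 370 of them at 50% or above in at least one test.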
B: 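Growth of Mycobacterium tuberculosis over 3 days (7H9 medium with glucose and tyloxapol); the read-out is not stated. Compounds at 50 µM. Direction is inferred from retests: higher values go with more growth inhibition. About 69,000 compounds were tested under these conditions; 1.1% (about 760) showed 50% or more at least once.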

structure | A | B
CN1CCCC(c2ccc(N3CCOCC3)cn2)C1.Cl (stereo not drawn) | 4.252 & 16.79 | -30.32
COCC(O)CNC(=O)Nc1c(F)cc(F)cc1-c1ccccc1 (stereo not drawn) | 6.998 | 11.98
CC[C@@H](Cn1ncc2ccccc2c1=O)NC(=O)c1cnc(C)cn1 | -12.38 | -5.834
CN(C)C(=O)CO[C@H]1CO[C@@]2(CCN(Cc3ccoc3)C2)C1 | -24.37 | -14.77
CC1CN(C)CCN1C(=O)Nc1nc(-c2ccco2)cs1 (stereo not drawn) | -3.713 | 6.958 & -25.63
O=C1COc2ccc(C(=O)NS(=O)(=O)c3ccccc3Cl)cc2N1 | 5.395 | 19.07
Cc1ccc(CN2CCC3(CC2)C(=O)NCCN3CC2CC2)o1 | -23.16 | -9.336
Cc1cc(=O)n(CCNS(=O)(=O)c2ccccc2)cn1 | -6.475 | -14.49
O=c1[nH]c(NC2CCCC2)nc2nccc(-c3cccs3)c12 | -5.955 | 7.625
Cc1nc(NC(=O)C(C)N(C)Cc2ccc3c(c2)OCO3)sc1C (stereo not drawn) | -0.4134 | 5.685
CCC(=O)NCc1cc(Br)ccc1OC(F)F | -6.067 | 5.557
O=S(=O)(CCN1CCN(c2ccccc2O)CC1)c1ccc(Cl)cc1 | 2.612 | 30.69
Cc1cccc(C)c1Oc1ncccc1CNC(=O)C1(C)CCCNC1 (stereo not drawn) | -23.98 | -17.15
O=C(O)C(F)(F)F.[H][C@@]12CCN(c3cccnc3)C[C@]1([H])CN(C(=O)c1ccco1)C2 | 10.37 | 33.57
CC(=O)Nc1ccc(Oc2cccc(CN3CCCC3)c2)cc1 | 13.55 | 9.432
OCC1CCN(C[C@@H]2CN(C3Cc4ccccc4C3)C[C@@H]2CO)CC1 | 17.71 | -0.1376 & 1.444
Cc1noc(C)c1CN(C)C(=O)CCOc1ccc(Cl)cc1 | -4.13 | 12.44
Cn1nc(C#N)c2c1CN(C(=O)c1ccnnc1)CCC2 | -14.65 | 5.205 & -33.64
O=C(CCO)N[C@H]1CN(CC2CCC2)C[C@@H]1c1ccccc1 | 11.53 | 12.2 & -3.274
CC(c1ccncc1)N(CCN(C)C)C(=O)Nc1ccc(Cl)c(Cl)c1 (stereo not drawn) | 16.89 | 10.47
CN1CC=C(c2noc(CCC(=O)N3CCc4ccccc43)n2)CC1 | -20.4 | -10.5
Cc1cn2c(n1)CCC(NC(=O)CCn1cncn1)C2 (stereo not drawn) | -25.25 | -3.46
CCc1ccc(S(=O)(=O)N2CC[C@@](O)(CCOC)[C@H](C)C2)cc1 | -5.26 | 10.87
CC(C)Cc1cc(C(=O)NC(C)C)[nH]n1 | -3.424 | 10.85
c1ccc2c(c1)OCCCC2NCc1nnc2n1CCCCC2 (stereo not drawn) | -0.05424 | 0.6055
[H][C@@]12CS(=O)(=O)C[C@]1([H])N(Cc1ncc[nH]1)CCN2CCCc1ccccc1 | -2.038 | -23.85
CC(=O)c1ccc(C(=O)N2C[C@@H](CN3CCCC3)[C@@H](CO)C2)cc1 | -5.882 & 0.9687 | -7.439
[H][C@@]12C[C@@H](C(=O)NC)N(C(C)C)[C@]1([H])CN(C(=O)c1ccccn1)C2 | -32.86 | -12.12 & -10.57
CCCS(=O)(=O)CC(=O)N1CCCC1c1noc(C2CC2)n1 (stereo not drawn) | 11.54 | -4.334
CC(OCC1CC1)C(=O)Nc1cccc(C(=O)Nc2ccncc2)c1 (stereo not drawn) | 6.795 | -1.178
Cc1occc1C(=O)NCc1cccnc1N(C)C | 8.765 | 11.05
CN1CCN(C(=O)C2CCCN2c2ncnc3ccsc23)CC1 (stereo not drawn) | -4.72 | -0.06023 & 11.84
O=C(O)C(F)(F)F.[H][C@@]12CCCO[C@]1([H])[C@H](NC(=O)C1CC1)CN2Cc1ccoc1 | -11.01 & 1.863 | 0.9102
CSCCC(NC(N)=O)C(=O)N1CCC(Cc2ccccc2)CC1 (stereo not drawn) | 6.325 | -0.6513
O=C(c1ccc(-n2ccnc2)nn1)N1CCCC1CCc1ccccc1 (stereo not drawn) | 2.256 | 5.583 & 22.31
O=C(O)C(F)(F)F.[H][C@]12CCN(c3ncc(F)cn3)[C@@]1([H])CC[C@H](COCc1cccnc1)O2 | -1.148 | 12.65
O=C(CSC1CCCC1)N1CCN(C(=O)C2CC2c2cccs2)CC1 (stereo not drawn) | -29.19 | -15.78 & 14.85
[H][C@@]12COC[C@]1(C(=O)NC(C)C)CN(Cc1cnn(C)c1)C2 | -5.387 | -20.01
Cn1nnc2c1CCN(S(C)(=O)=O)C2COCC1CC1 (stereo not drawn) | 4.62 | -3.906 & -1.863
O=C(c1cccnc1O)N1CCN(CCc2cccs2)CC1 | -10.33 | -33.86
COc1ncccc1NC(=O)c1cccc(C)n1 | -13.35 | -18.54
COCCN1C(=O)CCC12CCCN(c1ncc(F)cn1)CC2 (stereo not drawn) | -11.12 & -7.925 | -13.96 & -1.65
CC(=O)Nc1nc(CS(=O)(=O)CCCc2ccccc2)cs1 | -5.744 | 9.651
Nc1nc2c(c(NCc3ccc(C(=O)N4CCCC4)cc3)n1)CCCC2 | 20.22 | 39.52
Cc1ccc(CN2CCOC3(COCCN(Cc4ccncc4)C3)C2)o1.O=C(O)C(F)(F)F.O=C(O)C(F)(F)F.O=C(O)C(F)(F)F (stereo not drawn) | -0.7482 & -20.46 | -5.402
CS(=O)(=O)c1ccc(C(=O)NCCNc2ncccn2)cc1 | -1.72 | 11.12
CC(C)CC(=O)N1CCc2nc(N3CCOCC3)nc(NC(C)C)c2C1 | 9.385 | 20.49
N#Cc1ccc(F)c(CSCCN2CCOCC2)c1 | -12.17 | -0.3639
O=C(NCc1ccnc(OCC2CC2)c1)C1Cc2ccccc2O1 (stereo not drawn) | 25.94 | 17.11
CCOc1ccc(Br)cc1C1CCCCN1.Cl (stereo not drawn) | 10.24 | 33.96
Cc1cnc(C(=O)N2Cc3ncn(C)c3C(COCC(C)C)C2)cn1.O=C(O)C(F)(F)F (stereo not drawn) | 7.468 | 13.66
O=C(O)C(F)(F)F.[H][C@@]12COC[C@]1(CNS(=O)(=O)C1CC1)CN(CCc1ccccc1)C2 | -8.223 | 18.86
O=C(O)C(F)(F)F.[H][C@@]12CCCO[C@]1([H])[C@H](Oc1ccccn1)CN2S(=O)(=O)CCC | -6.788 & 3.616 | 1.784 & 12.78
CNCC[C@H]1CC(C)(C)Oc2ccc(C)cc21 | -14.81 | -7.306
Cc1ccc(-c2cc(CNc3ncnc4c3CCNCC4)no2)cc1 | 4.23 | 24.85

The first 6 entries again:

structure	A	B
CN1CCCC(c2ccc(N3CCOCC3)cn2)C1.Cl (stereo not drawn)	4.252 & 16.79	-30.32
COCC(O)CNC(=O)Nc1c(F)cc(F)cc1-c1ccccc1 (stereo not drawn)	6.998	11.98
CC[C@@H](Cn1ncc2ccccc2c1=O)NC(=O)c1cnc(C)cn1	-12.38	-5.834
CN(C)C(=O)CO[C@H]1CO[C@@]2(CCN(Cc3ccoc3)C2)C1	-24.37	-14.77
CC1CN(C)CCN1C(=O)Nc1nc(-c2ccco2)cs1 (stereo not drawn)	-3.713	6.958 & -25.63
O=C1COc2ccc(C(=O)NS(=O)(=O)c3ccccc3Cl)cc2N1	5.395	19.07